These are yes or no findings as the source states them, for the method shown. Binding can be weak; no strength is given. Sequences can lack the tags named with a protein.
Target: PARP1 D756A (human) (UniProt P09874)
Experiment: ITC; PARP1 D756A with HPF1; data in Supplementary Fig. 2 (ITC raw data); construct and conditions not told; both purified

Protein sequences, listed by entry. Tags and fused reporters are not part of them. Lines headed by an entry give the natural chain unless they say otherwise; changes in a name come on top.
UniProt P09874: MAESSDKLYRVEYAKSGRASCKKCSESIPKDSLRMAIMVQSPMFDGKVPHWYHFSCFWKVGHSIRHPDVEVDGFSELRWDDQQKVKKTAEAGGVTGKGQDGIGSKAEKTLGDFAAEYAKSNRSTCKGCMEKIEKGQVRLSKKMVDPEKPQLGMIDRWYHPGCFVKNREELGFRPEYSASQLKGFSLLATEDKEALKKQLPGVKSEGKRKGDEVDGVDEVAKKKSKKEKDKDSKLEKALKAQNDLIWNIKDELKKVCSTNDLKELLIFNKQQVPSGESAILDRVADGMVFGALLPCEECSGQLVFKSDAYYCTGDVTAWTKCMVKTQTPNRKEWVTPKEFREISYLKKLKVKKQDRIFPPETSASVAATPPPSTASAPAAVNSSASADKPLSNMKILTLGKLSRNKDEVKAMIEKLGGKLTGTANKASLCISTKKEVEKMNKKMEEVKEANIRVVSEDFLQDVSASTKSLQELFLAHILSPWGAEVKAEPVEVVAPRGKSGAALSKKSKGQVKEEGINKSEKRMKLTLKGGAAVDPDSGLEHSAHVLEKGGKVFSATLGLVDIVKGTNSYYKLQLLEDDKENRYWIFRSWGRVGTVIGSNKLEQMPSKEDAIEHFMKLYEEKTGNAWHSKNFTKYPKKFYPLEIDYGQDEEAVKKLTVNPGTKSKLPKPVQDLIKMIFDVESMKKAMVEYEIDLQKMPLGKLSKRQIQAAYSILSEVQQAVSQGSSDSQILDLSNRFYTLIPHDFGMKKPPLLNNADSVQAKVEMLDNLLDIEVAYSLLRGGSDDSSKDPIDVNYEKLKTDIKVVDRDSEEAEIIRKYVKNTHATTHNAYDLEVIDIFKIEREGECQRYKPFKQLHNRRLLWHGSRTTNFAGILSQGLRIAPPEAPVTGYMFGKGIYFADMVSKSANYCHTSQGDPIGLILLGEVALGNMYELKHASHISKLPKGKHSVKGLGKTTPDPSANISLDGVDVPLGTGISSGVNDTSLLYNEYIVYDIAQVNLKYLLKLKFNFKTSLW

binding: binds
B1: human HPF1 (histone PARylation factor 1), wild-type (protein, UniProt Q9NWY4 1-346)
chain: MVGGGGKRRPGGEGPQCEKTTDVKKSKFCEADVSSDLRKEVENHYKLSLPEDFYHFWKFCEELDPEKPSDSLSASLGLQLVGPYDILAGKHKTKKKSTGLNFNLHWRFYYDPPEFQTIIIGDNKTQYHMGYFRDSPDEFPVYVGINEAKKNCIIVPNGDNVFAAVKLFLTKKLREITDKKKINLLKNIDEKLTEAARELGYSLEQRTVKMKQRDKKVVTKTFHGAGLVVPVDKNDVGYRELPETDADLKRICKTIVEAASDEERLKAFAPIQEMMTFVQFANDECDYGMGLELGMDLFCYGSHYFHKVAGQLLPLAYNLLKRNLFAEIIEEHLANRSQENIDQLAA

From article PMC7884425
